Assay results as given in PubChem BioAssay AID1347076 (National Center for Advancing Translational Sciences (NCATS), 2019).
Among all 400,000 compounds or so, about 13,000 (3.2%) were called active. The inconclusive results got no clear call from the source; some entries with a clear call stand among them for comparison. Calls follow the shape of the dose curve; as a rule, active = well fitted cell-killing curve with a large enough effect; inconclusive = small, poorly fitted or top-dose-only effect, or effect the other way; inactive = flat fitted curve, though single readings scatter. Potencies of inconclusive entries are doubtful fits and often do not repeat.

Experiment: qHTS assay for MDR1-selective chemotherapeutics: Primary screen using the drug-selected MDR subline cells KB-V1; also: nearly all actives have a fitted effect of over 60% in size
Details: KB-V1 MDR cells viability, CellTiter-Glo, 72 h; activity change, negative = cytotoxicity: at 46.1 µM (top of the series)
Method in brief: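 Drug-selected KB-V1 cells, grown in DMEM lacking phenol red with 10% FBS, receive compound titrations; after three days at 37 degrees C, surviving cell ATP is quantified by CellTiter-Glo luminescence and responses normalized and curve-fitted.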
% is scaled to controls: 0 for no effect and ±100 for the full control effect; potency is read from the fitted curve at half-maximal effect.

| Structure (SMILES) | activity change, negative = cytotoxicity | Potency |
| --- | --- | --- |
| O=C(Nc1ccccn1)Nc1ccccc1[N+](=O)[O-] | inactive: -29.1% | – |
| Cn1nc(-c2ccc(C(=O)Nc3ccc(F)cc3)cc2)c2ccccc2c1=O | – | inconclusive: 18.4 µM [cytotoxic, single point] |
| CCC(C)Sc1nnc(CNC(=O)C23CC4CC(CC(C4)C2)C3)n1C1CCCCC1 (stereo unspecified) | – | inconclusive: 18.4 µM [cytotoxic, partial curve] |
| Cc1ccc2nc(SCc3nnc(-c4ccccc4[N+](=O)[O-])o3)c(C#N)cc2c1 | – | inconclusive: 2.51 µM [cytotoxic, full curve] |
| CCOC(=O)C(C)Oc1cccc2c(=O)n(CC(=O)NCc3ccc(F)cc3)ccc12 (stereo unspecified) | – | active: 1.3 µM |
| Cc1cc(CNC(=O)CC2C(=O)NCCN2CC(C)(C)C)nn1C (stereo unspecified) | – | inconclusive: 29.1 µM [rising, single point] |
| O=C(CN1C(=O)c2cccc3cccc1c23)N1CCN(c2ccccc2)CC1 | inactive: -12.8% | – |
| Fc1ccc2cnc(-c3cccnc3)cc2c1 | inactive: 5.47% | – |
| CCN(CC)c1ccc2c(cc1=O)[C@@H](NC)CCc1cc(OC)c(OC)c(OC)c1-2 | – | active: 6.51 µM |
| COC(=O)C1=C(C)N(Cc2ccccc2)C(=NCc2cccc(C(F)(F)F)c2)N[C@H]1c1cccc(F)c1 | – | inconclusive: 0.411 µM [cytotoxic, full curve, poor fit] |
| CCOC(=O)C1(CCc2ccccc2)CCN(C(=O)c2cc(C)nc(C)n2)CC1 | inactive: -27.8% | – |
| O=C(Nc1ccc([N+](=O)[O-])cc1)c1cc2ccccc2nc1Cl | – | inconclusive: 18.4 µM [cytotoxic, partial curve, poor fit] |
| O=C(CCNC(=O)c1ccc(Br)cc1)Nc1cccc(S(=O)(=O)N2CCCCC2)c1 | – | inconclusive: 23.1 µM [cytotoxic, single point] |
| O=C(NC(=S)Nc1ccc(S(=O)(=O)NC2CCCCC2)cc1)c1cccs1 | inactive: -16.4% | – |
| CCOC(=O)C1CCN(CCCSc2ccccc2)CC1 | – | inconclusive: 0.291 µM [cytotoxic, partial curve, poor fit] |
| CCOC(=O)c1sc(NC(=O)Nc2ccc(F)cc2)nc1C | – | inconclusive: 18.4 µM [cytotoxic, partial curve] |
| Cc1cc(-c2ccccc2)nc2cc(C(=O)N(Cc3ccccc3)Cc3ccccc3)nn12 | – | inconclusive: 23.1 µM [cytotoxic, partial curve, poor fit] |
| Cc1cc(C)c(NC(=O)Cn2c(=O)n(Cc3ccc4c(c3)OCO4)c(=O)c3ccc(C(=O)NC4CCCCC4)cc32)c(C)c1 | – | inconclusive: 18.4 µM [rising, single point] |
| CCc1ccccc1Nc1nc2ccccc2n1CC | – | inconclusive: 29.1 µM [cytotoxic, partial curve, poor fit] |
| CC(=O)Nc1ccc(-c2nc3ccc(NC(C)=O)cc3o2)cc1 | – | inconclusive: 29.1 µM [rising, single point] |
| COCCNC(=O)C(c1ccc(C)o1)N(C(=O)Cn1nnc2ccccc21)c1ccccc1 (stereo unspecified) | inactive: -12.2% | – |
| C=CCN1C(=O)C(O)(CC(=O)c2ccco2)c2cc(Br)ccc21 (stereo unspecified) | inconclusive: -30% | – |

| Structure (SMILES) | activity change, negative = cytotoxicity | Potency |
| --- | --- | --- |
| COc1cccc(C(=O)N2c3cc(C)ccc3C(C)(c3ccccc3)CC2(C)C)c1 (stereo unspecified) | – | inconclusive: 13 µM [cytotoxic, partial curve] |
| CC1CN(S(=O)(=O)c2csc(C(=O)Nc3ccccc3)c2)CC(C)O1 (stereo unspecified) | – | inconclusive: 23.1 µM [cytotoxic, partial curve, poor fit] |
| CSc1nc(-c2ccccc2)nc(C(Cl)Cl)n1 | – | active: 11.6 µM |
| COc1ccc(CCNc2nc(-c3cccnc3)cs2)cc1OC | – | inconclusive: 18.4 µM [cytotoxic, partial curve] |
| CCOC(=O)c1c(C)nc2sc(C(=O)Nc3ccc(C(C)=O)cc3)c(N)c2c1-c1ccc(OC)cc1 | – | inconclusive: 18.4 µM [cytotoxic, single point] |
| C[C@@H](NC(=O)c1nc[nH]c1C(=O)NCCCCCNC(=O)OC(C)(C)C)c1ccccc1 | – | inconclusive: 32.6 µM [cytotoxic, single point] |
| Cn1c(-c2ccc(Br)o2)nc2cc(Br)ccc21 | – | inconclusive: 9.2 µM [cytotoxic, partial curve, poor fit] |
| CCc1ccc(CNC(=O)c2cnc3sc4cc(OC)ccc4n3c2=O)cc1 | inactive: 0% | – |
| Cc1csc(NC(=O)c2ccc(C)c([N+](=O)[O-])c2)n1 | – | inconclusive: 9.2 µM [cytotoxic, single point] |
| CCOC(=O)c1c(-c2ccccc2)oc2cc(CN(C)C)c(O)c(CN(C)C)c12 | – | inconclusive: 35.5 µM [cytotoxic, single point] |
| CC/C(=N\NC(=O)COc1ccc(Br)cc1)c1ccc(OC)c(OC)c1 | – | inconclusive: 10.3 µM [cytotoxic, partial curve] |
| CCc1ccc(NC(=S)NCC2CCCN2CC)cc1 (stereo unspecified) | inactive: -10.1% | – |
| Cc1ccc(Cl)cc1-c1cc(C(=O)Nc2ccc(F)cc2)[nH]n1 | – | inconclusive: 32.6 µM [cytotoxic, partial curve, poor fit] |
| N#CCCN(Cc1cccnc1)S(=O)(=O)c1ccc2ccccc2c1 | – | active: 23.1 µM |
| O=C(COC(=O)Cc1ccsc1)Nc1ccc(Cl)cn1 | inactive: 1.5% | – |
| Nc1nc2c(s1)CCc1ccccc1-2 | – | inconclusive: 16.4 µM [rising, single point] |
| CCOC(=O)c1sc2cccc(F)c2c1S(=O)(=O)N1CCN(c2cccc(Cl)c2)CC1 | inactive: -10.9% | – |
| Cc1cccc(C)c1Nc1sc(C(=O)c2ccccc2)c(N)c1C(=O)Nc1ccc(F)cc1 | – | inconclusive: 20.6 µM [cytotoxic, single point] |
| COc1cc(C)c(C(=O)Oc2cc(C)c(C(=O)O)c(O)c2)c(O)c1 | – | inconclusive: 13 µM [cytotoxic, partial curve] |
| CCOC(=O)C1=C(C)N(C[C@@H]2CC[C@@H](Cc3ccc(-c4ccccc4)cc3)O2)C(=O)NC1c1ccc(Cl)cc1 (stereo partly specified) | inactive: -20.7% | – |
| O=C(Cc1cccs1)Nn1c(Cc2cccs2)nc2ccccc2c1=O | – | active: 20.6 µM |
| Cc1ccc(S(=O)(=O)N2C3CC(c4ccccc4)N(S(=O)(=O)c4cccc(Cl)c4)CC3C(=O)C[C@H]2c2ccccc2)cc1 (stereo partly specified) | – | inconclusive: 8.2 µM [cytotoxic, partial curve] |

Already shown: entries from further up.

| Structure (SMILES) | activity change, negative = cytotoxicity | Potency |
| --- | --- | --- |
| CCOC(=O)c1sc(NC(=O)Nc2ccc(F)cc2)nc1C | – | inconclusive: 18.4 µM [cytotoxic, partial curve] |
| Cc1cc(-c2ccccc2)nc2cc(C(=O)N(Cc3ccccc3)Cc3ccccc3)nn12 | – | inconclusive: 23.1 µM [cytotoxic, partial curve, poor fit] |
| Cc1cc(C)c(NC(=O)Cn2c(=O)n(Cc3ccc4c(c3)OCO4)c(=O)c3ccc(C(=O)NC4CCCCC4)cc32)c(C)c1 | – | inconclusive: 18.4 µM [rising, single point] |
| CCc1ccccc1Nc1nc2ccccc2n1CC | – | inconclusive: 29.1 µM [cytotoxic, partial curve, poor fit] |
| CC(=O)Nc1ccc(-c2nc3ccc(NC(C)=O)cc3o2)cc1 | – | inconclusive: 29.1 µM [rising, single point] |
| COCCNC(=O)C(c1ccc(C)o1)N(C(=O)Cn1nnc2ccccc21)c1ccccc1 (stereo unspecified) | inactive: -12.2% | – |
| C=CCN1C(=O)C(O)(CC(=O)c2ccco2)c2cc(Br)ccc21 (stereo unspecified) | inconclusive: -30% | – |
| COc1cccc(C(=O)N2c3cc(C)ccc3C(C)(c3ccccc3)CC2(C)C)c1 (stereo unspecified) | – | inconclusive: 13 µM [cytotoxic, partial curve] |
| CC1CN(S(=O)(=O)c2csc(C(=O)Nc3ccccc3)c2)CC(C)O1 (stereo unspecified) | – | inconclusive: 23.1 µM [cytotoxic, partial curve, poor fit] |
| CSc1nc(-c2ccccc2)nc(C(Cl)Cl)n1 | – | active: 11.6 µM |
| COc1ccc(CCNc2nc(-c3cccnc3)cs2)cc1OC | – | inconclusive: 18.4 µM [cytotoxic, partial curve] |

Next part.

| Structure (SMILES) | activity change, negative = cytotoxicity | Potency |
| --- | --- | --- |
| CCCC[C@@H]1C[C@H]1[C@@H](NC(=O)c1cccs1)c1ccc(Cl)cc1 | – | inconclusive: 20.6 µM [cytotoxic, single point] |
| C[C@H](NC(N)=O)C(=O)N1CCN(S(=O)(=O)c2ccc3ccccc3c2)CC1 | inactive: -0.573% | – |
| O=C(Nc1nnc([C@H]2C[C@H](O)[C@@H](CO)O2)s1)c1ccccc1F | inactive: 5.42% | – |
| Cc1ccc(S(=O)(=O)N(C)C)cc1NC(=O)C(C)N(C)CCOc1ccc(Cl)cc1 (stereo unspecified) | – | inconclusive: 29.1 µM [cytotoxic, single point] |
| COC(=O)Cn1nc(-c2ccccc2)c2ccccc21 | – | inconclusive: 23.1 µM [cytotoxic, single point] |
| Cc1cccc(OCc2nc3c4c(ncn3n2)-c2ccccc2CC42CCCC2)c1 | – | inconclusive: 18.4 µM [cytotoxic, single point] |
| CS(=O)(=O)N1CCc2cc(C(=O)Nc3ccccc3Cl)ccc21 | inactive: -15.6% | – |
| COc1ccc(C(C(=O)Nc2c(C)cccc2C)N2CCN(c3ccc(C)cc3)CC2)cc1 (stereo unspecified) | – | inconclusive: 5.8 µM [cytotoxic, partial curve, poor fit] |
| CCOC(=O)c1ccc(N2C(=O)c3n[nH]c(-c4cccs4)c3C2c2ccc(C(C)(C)C)cc2)cc1 (stereo unspecified) | – | inconclusive: 18.4 µM [cytotoxic, partial curve, poor fit] |
| O=C(Nc1nc2n(n1)C(c1ccccc1)C=C(c1ccccc1)N2)c1ccc(Cl)c([N+](=O)[O-])c1 (stereo unspecified) | inactive: 1.49% | – |
| O=C(CSc1nnc(-c2cccnc2)n1-c1ccc(SC(F)F)cc1)N1CCCc2ccccc21 | inactive: -16.6% | – |
| CCc1cccc(NC(=O)Cn2nc(-c3ccc(OC)cc3)ccc2=O)c1 | – | inconclusive: 32.6 µM [cytotoxic, single point] |
| COc1ccc(S(=O)(=O)Nc2cccc3ccc(O)cc23)cc1 | – | inconclusive: 7.31 µM [cytotoxic, partial curve, poor fit] |
| CCC(C)NC(=O)Cn1ncc2c([nH]c3ccc(C)cc32)c1=O (stereo unspecified) | – | inconclusive: 16.4 µM [rising, single point] |
| COc1cccc(-c2ccc3c(N)c(C(=O)c4ccc(Cl)cc4)sc3n2)c1 | – | inconclusive: 29.1 µM [cytotoxic, single point] |
| N=c1c2c(ncn1Cc1ccco1)Oc1cc(O)ccc1C2c1ccccc1 (stereo unspecified) | – | inconclusive: 29.1 µM [cytotoxic, single point] |
| O=C(Cn1c(=O)n(-c2ccccc2)c(=O)c2sccc21)NCc1ccccc1 | – | inconclusive: 23.1 µM [cytotoxic, partial curve, poor fit] |
| CNC(=S)N/N=C/c1cn(CCOc2ccccc2OC)c2ccccc12 | – | inconclusive: 20.6 µM [cytotoxic, partial curve] |
| CCc1nnc(NS(=O)(=O)c2ccc(NC(=O)CCC(=O)OC)cc2)s1 | inactive: 0% | – |
| COc1cc(C(=O)N2Cc3cc4ccccc4nc3C2C)cc(OC)c1OC (stereo unspecified) | – | inconclusive: 20.6 µM [cytotoxic, single point] |
| COc1ccc(CCNC(=O)CN(C)S(=O)(=O)c2cccs2)cc1OC | – | inconclusive: 20.6 µM [cytotoxic, single point] |
| Cn1c(SCC(=O)N2CCCc3ccccc32)nc2ccccc2c1=O | – | inconclusive: 20.6 µM [cytotoxic, partial curve] |
